Reference: PubChem BioAssay AID493014 (National Center for Advancing Translational Sciences (NCATS), 2011)
Some of the results follow. These are further read-outs of the screen, such as a control signal, another cell line or another target. No call is given for them. Most of these compounds were active or inconclusive in the main read-out, so they are no random draw. Potencies come from curve fits of mixed quality, noted in brackets.

Test: qHTS Assay to Find Inhibitors of Chronic Active B-Cell Receptor Signaling
Conditions: ABC-DLBCL IkBa-CBG/CBR reporter, luminescence ratio (green luciferase fused to IkBa over red control in TMD8 lymphoma cells), 4 h
Summary of the method: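 Doxycycline induced both beetle luciferases in TMD8 lymphoma cells; IKK-driven degradation limits the IkappaBalpha-fused green signal, while red luminescence normalises for cell number and nonspecific effects. Compounds tested up to 46 uM, 4 hrs.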

[1] = measured here: CBR red luminescence, cell number
[2] = measured here: IkBa-CBG green luminescence

| Compound | AC50 [1] | AC50 [2] |
| --- | --- | --- |
| Cc1cc(C)c(S(=O)(=O)Nc2ccc3c4c(cccc24)CC3)c(C)c1 | 1.41 µM [rising, partial curve, poor fit] | 1.12 µM [falling, partial curve] |
| Cc1ccc(SCC(=O)NNC(=O)c2ccc(S(C)(=O)=O)cc2)cc1 | 25.1 µM [rising, single point] |  |
| COc1cc(-c2n[nH]c(=S)n2-c2ccccc2C(F)(F)F)cc(OC)c1OC | 35.5 µM [rising, single point] |  |
| CC1CC(C)CN(S(=O)(=O)c2ccc(NC(=O)c3ccc(=O)[nH]c3)cc2)C1 (stereo not drawn) | 7.31 µM [rising, partial curve] | 16.4 µM [falling, partial curve] |
| CCn1cc(/C=C/C(=O)Nc2ccc(C)cc2Br)cn1 | 0.92 µM [rising, full curve, poor fit] |  |
| CCn1nc(C(=O)NNC(=O)C(Cc2ccccc2)NC(N)=O)c2ccccc2c1=O (stereo not drawn) | 10.3 µM [rising, partial curve] |  |
| CC(NS(=O)(=O)c1ccc(Br)s1)c1ccccc1 (stereo not drawn) | 15.8 µM [falling, partial curve, poor fit] |  |
| CCN(C(=O)CN1C(=O)NC(CCSC)C1=O)C1CCS(=O)(=O)C1 (stereo not drawn) | 20.6 µM [falling, partial curve, poor fit] |  |
| CCCC(=O)Nc1ccc(C=C(C(C)=O)C(C)=O)cc1 | 35.5 µM [falling, single point] |  |
| Cc1cccc(/C=N/NC(=O)c2ccc3c(c2)OCCO3)c1O | 20 µM [falling, partial curve, poor fit] |  |
| O=C1CCCc2nn(-c3ccccc3)c(-c3ccncc3)c21 | 6.31 µM [falling, full curve, poor fit] |  |
| CC(=O)c1c(C)[nH]c(C(=O)Nc2cc(C)cc(C)c2)c1C | 29.1 µM [rising, partial curve, poor fit] |  |
| CCc1ccc(/C=C2\SC(=S)N(CCC(=O)NCCCN3CCOCC3)C2=O)cc1 | 7.08 µM [falling, partial curve, poor fit] |  |
| Cc1ccc2nc(NC(=O)CSc3nc4c(c(=O)n3C)SC(C)C4)sc2c1 (stereo not drawn) | 20 µM [falling, partial curve, poor fit] |  |
| Cc1cc(C)n(CC(C)C(=O)O)n1 (stereo not drawn) | 35.5 µM [rising, single point] |  |
| O=C1CCCC2=C1C(c1ccccc1)C1C(=O)c3ccccc3C1=N2 (stereo not drawn) |  | 25.9 µM [rising, partial curve, poor fit] |
| CC(=O)c1c(C)oc2c1cc(NS(=O)(=O)c1ccc(Br)cc1)c1ccccc12 | 3.98 µM [rising, full curve] | 2.82 µM [falling, full curve, poor fit] |
| Cc1ccc(C(=O)Nc2nnc(C)s2)o1 | 6.51 µM [falling, single point] |  |
| CCC1=NN2C(=N)/C(=C\c3cccn3-c3ccc(OC)cc3)C(=O)N=C2S1 | 8.91 µM [rising, partial curve, poor fit] |  |
| CC(=O)c1nn(-c2ccc(Cl)cc2)c(=O)[nH]c1=O | 1 µM [rising, full curve, poor fit] |  |
| Nn1cnnc1N/N=C/c1cc(Br)cc(Br)c1O | 35.5 µM [falling, single point] |  |

Given with bars between the fields: entries from further up.
Compound | AC50 [1] | AC50 [2]
CC(=O)c1nn(-c2ccc(Cl)cc2)c(=O)[nH]c1=O | 1 µM [rising, full curve, poor fit] | 
Nn1cnnc1N/N=C/c1cc(Br)cc(Br)c1O | 35.5 µM [falling, single point] | 

(more compounds)

| Compound | AC50 [1] | AC50 [2] |
| --- | --- | --- |
| O=C(Nc1ccccc1Cl)c1ccc(Cl)cc1Cl | 6.31 µM [rising, full curve] |  |
| Cc1ccc(N(CC(=O)NCCSc2ccccn2)S(=O)(=O)c2ccc(F)cc2)cc1 | 35.5 µM [falling, single point] |  |
| O=C(O)CCSc1nnc(-c2ccc3c(c2)OCO3)o1 | 1.78 µM [falling, full curve] |  |
| Cc1ccc(S(=O)(=O)NCC(c2ccco2)S(=O)(=O)c2ccccc2)cc1 (stereo not drawn) | 0.731 µM [falling, full curve] |  |
| O=c1oc2ccccc2cc1-c1cn(-c2ccccc2)c(=S)[nH]1 | 0.0326 µM [falling, full curve] |  |
| N#CC1=C2SCC(O)(c3ccccc3)N2C(=O)CC1c1ccccc1F (stereo not drawn) | 3.26 µM [falling, partial curve, poor fit] |  |
| COc1cc(OC)cc(C(=O)Nc2ncc3c(n2)CC(C)(C)CC3=O)c1 | 14.1 µM [falling, partial curve] |  |
| O=C(c1cccc(Cl)c1)N1CCN(c2ccccn2)CC1 | 5.17 µM [rising, full curve, poor fit] |  |
| CCn1c(=O)c2c(nc3n2CC(C)CN3CCc2ccccc2)n(C)c1=O (stereo not drawn) | 6.31 µM [falling, partial curve, poor fit] |  |
| COc1ccc(C(=O)Nc2cccc(C(=O)N3CCN(C)CC3)c2)cc1 | 6.51 µM [falling, partial curve] |  |
| N=c1oc2ccccc2cc1C(=O)N/N=C/c1ccccc1 | 2 µM [falling, full curve] |  |
| COc1ccc(-c2c(-c3ccc(OC)c(C)c3O)n[nH]c2C)cc1 | 35.5 µM [falling, single point] |  |
| CC(=O)Nc1ccc(NC(=O)C(C)OC(=O)c2ccccc2C(=O)c2ccc(Cl)c([N+](=O)[O-])c2)cc1 (stereo not drawn) | 14.6 µM [falling, single point] |  |
| CCOc1ccc(NS(=O)(=O)c2ccc3c(c2)n(C)c(=O)n3C)cc1 | 15.8 µM [rising, single point] |  |
| CCC(Oc1ccccc1)C(=O)N1CCN(C(=O)C(CC)Oc2ccccc2)CC1 (stereo not drawn) | 4.11 µM [rising, single point] |  |
| CC(C)CCSc1nc2ccccc2[nH]1 | 1.41 µM [rising, partial curve, poor fit] |  |
| Cc1ccc(Nc2nc(N)nc(CN3CCN(Cc4ccc5c(c4)OCO5)CC3)n2)cc1Cl | 35.5 µM [falling, single point] |  |
| Cc1sc(NC(=O)COc2cccc(-n3cnnn3)c2)c(C#N)c1C | 12.6 µM [rising, partial curve, poor fit] |  |
| COc1ccc(C(=O)CCN2CCN(c3ccccc3OC)CC2)cc1 | 25.1 µM [falling, single point] | 35.5 µM [rising, partial curve, poor fit] |
| COc1ccc(S(=O)(=O)N2CCCCC2)cc1NS(=O)(=O)c1cc(Cl)ccc1Cl | 7.31 µM [rising, partial curve] | 29.1 µM [falling, partial curve, poor fit] |
| CCn1c(SCc2cc(=O)[nH]c3ccccc23)nnc1C1CC1 | 23.1 µM [falling, partial curve] |  |

| Compound | AC50 [1] | AC50 [2] |
| --- | --- | --- |
| COc1cc(/C=C/C(=O)OCC(=O)Nc2cc(S(=O)(=O)N3CCCCC3)ccc2C)ccc1O | 18.4 µM [falling, single point] |  |
| CCOc1ccccc1-n1nnnc1SCC(=O)Nc1cc(C)on1 | 6.31 µM [rising, single point] |  |
| CC1=CC(=C2C(=O)c3ccccc3C2=O)C=C(C)N1C | 35.5 µM [falling, single point] |  |
| Cc1cccc(-n2c(-c3cccc([N+](=O)[O-])c3)nc3nc4ccccc4nc32)c1 | 0.651 µM [rising, full curve, poor fit] |  |
| CCn1c(SCC(N)=O)nnc1-c1cc2c(C)nn(-c3ccccc3)c2s1 | 12.6 µM [falling, partial curve] |  |
| Cc1cccc(Nc2nnc(SCC(=O)c3ccc(Br)s3)s2)c1C | 23.1 µM [falling, partial curve] |  |
| Cc1cccc(N/N=C/c2ccncc2)c1 | 3.55 µM [rising, single point] |  |
| CCOP(=O)(OCC)c1ccc2c(c1)C(=O)c1ccccc1CC2 | 20.6 µM [rising, single point] |  |
| O=C1/C(=C\c2ccc(O)c(O)c2)C(c2ccccc2)=NN1c1ccccc1 | 12.6 µM [rising, partial curve, poor fit] |  |
| Cn1cc(/C=N/n2cnc3scc(-c4ccc(Cl)cc4)c3c2=O)c2ccccc21 |  | 2.51 µM [falling, full curve, poor fit] |
| CCCCN1C(=O)/C(=C(/C#N)C(N)=O)c2ccccc21 | 23.1 µM [rising, single point] | 29.1 µM [falling, single point] |
| O=C(COc1cccnc1[N+](=O)[O-])Nc1cccc(S(=O)(=O)N2CCOCC2)c1 | 11.2 µM [falling, partial curve, poor fit] |  |
| CCOc1ccccc1Nc1sc(C(=O)c2ccccc2)c(N)c1C(=O)Nc1ccccc1 | 15.8 µM [falling, partial curve, poor fit] |  |
| COc1ccc(S(=O)(=O)N2CCN(C(=O)c3cnc(C)cn3)CC2)cc1 | 0.58 µM [falling, partial curve, poor fit] |  |
| COc1cc(/C=C2\CC/C(=C\c3cc(OC)c(O)c(OC)c3)C2=O)cc(OC)c1O | 18.4 µM [falling, partial curve] | 5.8 µM [rising, full curve] |
| COC(=O)C1=CN(Cc2ccc(OC)c(OC)c2)C=C(C(=O)OC)C1c1cccc(OC)c1OC | 20 µM [rising, partial curve, poor fit] |  |
| CCn1c(=O)c2cc(S(=O)(=O)NC3CCCCC3)ccc2n(CC)c1=O | 0.184 µM [falling, full curve, poor fit] |  |
| CC(NCc1ccccc1Cl)C(=O)Nc1ccc(S(=O)(=O)N2CCCC2)cc1 (stereo not drawn) | 2.31 µM [rising, partial curve, poor fit] |  |
| COc1cc(/C=N/NC(=O)C2C3CCCCC32C)cc(Br)c1O (stereo not drawn) |  | 25.9 µM [falling, partial curve, poor fit] |
